{"source": "PubChem BioAssay AID720505 | Drosophila RNAi Screening Center, 2013", "test": "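Knock-downs that reduce calcium influx once internal stores are emptied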 (primary screen)", "cell system": "Drosophila S2R+ cells", "reagents": "long dsRNA against Drosophila genes", "conditions": "thapsigargin (2 µM) in calcium-free buffer to empty internal stores, then 2 mM calcium added back", "read-out": "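Fluo-4 signal in 384-well plates read on a FLIPR after thapsigargin (2 µM, calcium-free) store depletion and 2 mM calcium add-back; unnormalised mean endpoint per well; screen run twice, selected wells retested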", "scale": "calcium signal: higher = more calcium entry after store depletion", "active means": "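Knock-downs counted as hits when calcium entry dropped relative to STIM1 positive and Rho1 negative controls present on each plate; roughly 1500 genes called, with reductions of differing size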", "calls": "active = called as lowering calcium entry; inactive = not called", "note": "The screen tested about 20,000 reagents; this is an unselected part of those with a known target gene and a result. Over the whole deposit, about 2,100 (10%) were called active. 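Raw plate signals without normalisation; calls rest on control-based scores that were not deposited; replicate 2 separates called from uncalled poorly.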 Names joined by + are all predicted targets of the reagent. Not stated in the record: the amount of reagent, the time to read-out."}
{"gene": "CG18635 (GeneID 37031)", "DRSC id": "DRSC06780", "calcium signal, replicate 1": 143, "calcium signal, replicate 2": 133, "call": "inactive"}
{"gene": "Npc1b (GeneID 33072)", "DRSC id": "DRSC20488", "calcium signal, replicate 1": 201, "calcium signal, replicate 2": 78.6, "call": "inactive"}
{"gene": "CG31370 (GeneID 43060)", "DRSC id": "DRSC21453", "calcium signal, replicate 1": 184, "calcium signal, replicate 2": 104, "call": "inactive"}
{"gene": "CG10116 (GeneID 39515)", "DRSC id": "DRSC09700", "calcium signal, replicate 1": 112, "calcium signal, replicate 2": 91.4, "call": "inactive"}
{"gene": "miple2 (GeneID 44787)", "DRSC id": "DRSC08723", "calcium signal, replicate 1": 99.8, "calcium signal, replicate 2": 134, "call": "inactive"}
{"gene": "alpha-Spec (GeneID 38231)", "DRSC id": "DRSC08704", "calcium signal, replicate 1": 158, "calcium signal, replicate 2": 110, "call": "inactive"}
{"gene": "Pym (GeneID 37780)", "DRSC id": "DRSC22492", "calcium signal, replicate 1": 80.8, "calcium signal, replicate 2": 163, "call": "inactive"}
{"gene": "Pym (GeneID 37780)", "DRSC id": "DRSC23017", "calcium signal, replicate 1": 80.4, "calcium signal, replicate 2": 114, "call": "inactive"}
{"gene": "CG5084 (GeneID 37051)", "DRSC id": "DRSC06913", "calcium signal, replicate 1": 155, "calcium signal, replicate 2": 102, "call": "inactive"}
{"gene": "CG1544 (GeneID 43689)", "DRSC id": "DRSC15036", "calcium signal, replicate 1": 89, "calcium signal, replicate 2": 107, "call": "inactive"}
{"gene": "Mtp (GeneID 35362)", "DRSC id": "DRSC03216", "calcium signal, replicate 1": 135, "calcium signal, replicate 2": 78.9, "call": "inactive"}
{"gene": "fl(2)d (GeneID 36527)", "DRSC id": "DRSC07620", "calcium signal, replicate 1": 122, "calcium signal, replicate 2": 205, "call": "inactive"}
{"gene": "Pex12 (GeneID 33256)", "DRSC id": "DRSC00622", "calcium signal, replicate 1": 118, "calcium signal, replicate 2": 106, "call": "inactive"}
{"gene": "btd (GeneID 31912)", "DRSC id": "DRSC18747", "calcium signal, replicate 1": 72, "calcium signal, replicate 2": 86.6, "call": "active"}
{"gene": "CG18178 (GeneID 39138)", "DRSC id": "DRSC10302", "calcium signal, replicate 1": 132, "calcium signal, replicate 2": 88.5, "call": "inactive"}
{"gene": "Wdr81 (GeneID 34616)", "DRSC id": "DRSC02985", "calcium signal, replicate 1": 88, "calcium signal, replicate 2": 94.8, "call": "inactive"}
{"gene": "CG7872 (GeneID 32493)", "DRSC id": "DRSC20062", "calcium signal, replicate 1": 149, "calcium signal, replicate 2": 127, "call": "inactive"}
{"gene": "Sec5 (GeneID 33563)", "DRSC id": "DRSC00714", "calcium signal, replicate 1": 103, "calcium signal, replicate 2": 171, "call": "inactive"}
{"gene": "CG13609 (GeneID 42883)", "DRSC id": "DRSC14612", "calcium signal, replicate 1": 168, "calcium signal, replicate 2": 149, "call": "inactive"}
{"gene": "CG13609 (GeneID 42883)", "DRSC id": "DRSC22843", "calcium signal, replicate 1": 104, "calcium signal, replicate 2": 102, "call": "inactive"}
{"gene": "laza (GeneID 40468)", "DRSC id": "DRSC11661", "calcium signal, replicate 1": 115, "calcium signal, replicate 2": 152, "call": "inactive"}
{"gene": "laza (GeneID 40468)", "DRSC id": "DRSC23330", "calcium signal, replicate 1": 95, "calcium signal, replicate 2": 134, "call": "inactive"}
{"gene": "Cdc23 (GeneID 35315)", "DRSC id": "DRSC02708", "calcium signal, replicate 1": 109, "calcium signal, replicate 2": 90.2, "call": "inactive"}
{"gene": "Atg10 + CG18853 + CG12822", "DRSC id": "DRSC20757", "calcium signal, replicate 1": 81.2, "calcium signal, replicate 2": 9169, "call": "inactive"}
{"gene": "lcs (GeneID 33120)", "DRSC id": "DRSC20580", "calcium signal, replicate 1": 79.3, "calcium signal, replicate 2": 101, "call": "inactive"}
{"gene": "rhea (GeneID 38978)", "DRSC id": "DRSC11300", "calcium signal, replicate 1": 107, "calcium signal, replicate 2": 84.8, "call": "inactive"}
{"gene": "nwk (GeneID 39052)", "DRSC id": "DRSC10439", "calcium signal, replicate 1": 74.6, "calcium signal, replicate 2": 109, "call": "active"}
{"gene": "nwk (GeneID 39052)", "DRSC id": "DRSC10442", "calcium signal, replicate 1": 97.5, "calcium signal, replicate 2": 97, "call": "inactive"}

Records above whose target name begins with A or a:
{"gene": "alpha-Spec (GeneID 38231)", "DRSC id": "DRSC08704", "calcium signal, replicate 1": 158, "calcium signal, replicate 2": 110, "call": "inactive"}
{"gene": "Atg10 + CG18853 + CG12822", "DRSC id": "DRSC20757", "calcium signal, replicate 1": 81.2, "calcium signal, replicate 2": 9169, "call": "inactive"}
